PubChem BioAssay AID493014 (National Center for Advancing Translational Sciences (NCATS), 2011)
This is one part of the list. Shown are side measurements of this screen, not its main read-out; they come without a call. Compounds called inactive in the main read-out are mostly missing here. Words in brackets tell the shape of the fitted curve; partial curves, single points and poor fits give uncertain potencies.

Assay: qHTS Assay to Find Inhibitors of Chronic Active B-Cell Receptor Signaling
Conditions: ABC-DLBCL IkBa-CBG/CBR reporter, luminescence ratio (green luciferase fused to IkBa over red control in TMD8 lymphoma cells), 4 h
Summary of the method: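 Cell line TMD8 (human ABC DLBCL), stably expressing tet-inducible CBG68-IkBa fusion and CBR; IMDM/0.5% FBS; cpd up to 46 uM; dox induction, 4 h, 37C/5% CO2; dual luminescence; green/red ratio; MG132 control.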

[1] = measured here: CBR red luminescence, cell number
[2] = measured here: IkBa-CBG green luminescence

| Structure (SMILES) | AC50 [1] | AC50 [2] |
| --- | --- | --- |
| CN(c1nc(-c2ccccc2)cs1)C1CCS(=O)(=O)C1 (centres undefined) | 14.6 µM [rising, partial curve] | – |
| S=C(N/N=C/c1ccco1)NC1CC2CCC1C2 (centres undefined) | 0.708 µM [rising, full curve, poor fit] | 35.5 µM [falling, single point] |
| CCCC(=O)NC(c1ccc(OC)cc1)c1c(O)ccc2ccccc12 (centres undefined) | 7.94 µM [falling, partial curve] | – |
| CCc1nnc(NC(=O)c2cccs2)s1 | 23.1 µM [falling, single point] | – |
| Cc1cc(-c2nnc(CCC(=O)NCC(C)c3ccccc3)o2)no1 (centres undefined) | – | 35.5 µM [rising, partial curve, poor fit] |
| CC(=O)Nc1c(S(=O)(=O)c2ccccc2)c2nc3ccccc3nc2n1Cc1ccccc1 | 7.08 µM [falling, partial curve, poor fit] | – |
| CCOC(=O)c1cc(C)nc(S(C)(=O)=O)c1C#N | 11.2 µM [falling, partial curve, poor fit] | 11.2 µM [rising, partial curve, poor fit] |
| CC(=O)CCS(=O)(=O)c1ccc(C)c(C)c1 | 23.1 µM [falling, partial curve, poor fit] | – |
| CN(C)c1ccc2c(c1)OC(N)=C(C#N)C2c1cccc(F)c1 (centres undefined) | 2.24 µM [rising, full curve, poor fit] | 0.501 µM [falling, full curve] |
| COc1ccc(OCCN2C(=O)c3ccccc3C2=O)c([N+](=O)[O-])c1 | 35.5 µM [rising, partial curve, poor fit] | – |
| O=C(NCc1cccnc1)c1cc(Sc2cccc(Cl)c2)nc2ccccc12 | 3.66 µM [rising, single point] | – |
| Cn1c(=O)c2c(nc(CN3CCN(c4ccccc4)CC3)n2Cc2c(F)cccc2Cl)n(C)c1=O | 2 µM [rising, full curve, poor fit] | – |
| COc1ccc(NC(=O)CCS(=O)(=O)c2ccc3c(c2)oc(=O)n3C)cc1OC | 22.4 µM [rising, single point] | – |
| CC1(C)N=C(SCC(=O)Nc2ccc(Cl)cc2)C(c2ccc(Cl)cc2)=N1 | 16.4 µM [falling, partial curve, poor fit] | – |
| CCC(=O)n1nc(NCc2ccc(OC)c(OC)c2)nc1NCc1ccc(OC)c(OC)c1 | 3.66 µM [rising, single point] | – |
| O=C(/C=C/c1ccco1)N1CCN(S(=O)(=O)/C=C/c2ccccc2)CC1 | 4.47 µM [rising, partial curve, poor fit] | – |
| CCOc1ccccc1C(=O)Nc1ccccc1O | 16.4 µM [falling, single point] | – |
| c1ccc(CC2CCCNC2)cc1 (centres undefined) | 5.62 µM [rising, single point] | – |
| CN1CCN(CCCN2c3ccccc3Sc3ccc(S(=O)(=O)N(C)C)cc32)CC1 | 23.1 µM [falling, single point] | – |
| CCOc1ccc(C(=O)NCCc2ccccc2)cc1 | 14.6 µM [falling, partial curve, poor fit] | – |
| CCOc1ccccc1N1C(=O)CN(Cc2ccc(OC)c(OC)c2)C1=S | 17.8 µM [falling, single point] | – |
| O=C(CNC(=O)c1cccc(N2C(=O)c3ccccc3C2=O)c1)Nc1ccc(F)c(F)c1 | 2.31 µM [rising, partial curve] | – |

| Structure (SMILES) | AC50 [1] | AC50 [2] |
| --- | --- | --- |
| Cn1cc([N+](=O)[O-])c(C(=O)N/N=C\c2c[nH]c3ccccc23)n1 | 11.2 µM [falling, single point] | – |
| CC(=O)N(Cc1cccnc1)c1cccc(-c2nc3ccccc3s2)c1 | 35.5 µM [falling, single point] | – |
| CCOc1cc(/C=C2\C(=O)NN(c3ccccc3)C2=O)cc([N+](=O)[O-])c1O | 25.1 µM [falling, single point] | – |
| COc1ccccc1C(NC(=O)C1CCCCC1)c1c(O)ccc2ccccc12 (centres undefined) | 23.1 µM [rising, partial curve, poor fit] | – |
| CCCOc1ccc(NC(=O)OC2CCN(C)CC2)cc1 | 16.4 µM [rising, single point] | – |
| O=c1c2ccccc2ccc2ccc(P(=O)(O)O)cc12 | – | 5.8 µM [rising, partial curve, poor fit] |
| CN(C)c1ccnc(Oc2ccccc2)c1C#N | 8.91 µM [rising, partial curve, poor fit] | – |
| COc1ccccc1/C=N/NC(=O)c1sc(C)nc1C | 35.5 µM [falling, single point] | – |
| Nc1ncnc(Sc2ccccc2)c1[N+](=O)[O-] | 6.51 µM [falling, partial curve] | – |
| CC(=O)Nc1ccc(S(=O)(=O)Nc2nc(C)nc3sc4c(c23)CCC4)cc1 | 0.794 µM [rising, full curve, poor fit] | – |
| Cn1ccnc1C(=O)c1cc(SCC(=O)N2CCOCC2)nc2ccccc12 | 35.5 µM [rising, single point] | – |
| O=C(Nc1ccc(S(=O)(=O)N2CCOCC2)cc1)c1ccc2ncsc2c1 | 11.2 µM [falling, partial curve] | – |
| COc1ccc(OC)c2sc(NC(=O)C3CC3)nc12 | 0.58 µM [falling, full curve, poor fit] | – |
| CCCN(CC(=O)Nc1ccccc1C)C(=O)Cc1coc2cc(C)ccc12 | 14.1 µM [falling, single point] | – |
| CCOC(=O)c1sc(NC(=O)Nc2ccccc2Cl)cc1C | 25.9 µM [falling, single point] | – |
| Oc1ccc(-c2nnc(SCC3CCCCC3)o2)cc1 | 31.6 µM [falling, single point] | – |
| CSCCC(=O)Nc1nc(-c2ccccn2)cs1 | 11.2 µM [falling, single point] | – |
| Cc1ccc(NC(=O)CN2C(=O)S/C(=C/c3ccc(-c4cc(C(=O)O)ccc4C)o3)C2=O)cc1C | 16.4 µM [rising, partial curve, poor fit] | – |
| CCSc1nnc(NC(=O)c2ccco2)s1 | 29.1 µM [falling, single point] | – |
| CCOc1ccc(OCCn2c(SCC(=O)O)nc3ccccc32)cc1 | 7.94 µM [falling, partial curve, poor fit] | – |
| CS(=O)(=O)Nc1ccc(N2CCCCC2)c(Cl)c1 | 11.6 µM [rising, partial curve, poor fit] | – |
| O=C(Nc1nccs1)c1cncc(Br)c1 | 11.2 µM [falling, single point] | – |

| Structure (SMILES) | AC50 [1] | AC50 [2] |
| --- | --- | --- |
| O=C(NCc1ccccc1)N1CCN(c2ccccc2F)CC1 | 16.4 µM [rising, partial curve, poor fit] | – |
| NNC(=O)c1cc2sccc2s1 | – | 25.1 µM [falling, single point] |
| CCc1nn(CCCC(=O)NCc2ccc(C)cc2)c(=O)c2cc3occc3n12 | 15.8 µM [rising, single point] | – |
| Cc1ccc(COc2ccc(/C=N/O)cc2)cc1 | 20.6 µM [rising, partial curve] | – |
| COc1cc(C(C)=O)ccc1OCC(=O)c1cc(C)n(C2CC2)c1C | 3.16 µM [rising, single point] | – |
| O=C(Nc1cccnc1)c1c(F)cccc1F | 18.4 µM [rising, partial curve, poor fit] | – |
| CCCCOc1cccc(C(=O)Nc2ccc(N3CCN(CC)CC3)cc2)c1 | 0.259 µM [rising, full curve, poor fit] | – |
| O=[N+]([O-])c1ccc(-n2nnnc2-c2ccccc2)c([N+](=O)[O-])c1 | 16.4 µM [falling, single point] | 20.6 µM [rising, partial curve, poor fit] |
| Cc1cccc(OCC(=O)NCCNC(=O)c2ccccn2)c1 | 0.158 µM [falling, partial curve, poor fit] | – |
| CCCCNC(=S)NCC(c1ccccc1)c1c[nH]c2ccccc12 (centres undefined) | 35.5 µM [falling, single point] | – |
| CCC(O)(CC)C(=O)N/N=C/c1cc(Br)cc(Br)c1O | 35.5 µM [rising, single point] | – |
| Clc1ccccc1CSc1cc2c(nn1)-c1ccccc1CC2 | 5.62 µM [rising, partial curve, poor fit] | – |
| Cc1cnc(C(=O)Nc2ccc(OC(F)(F)F)cc2)cn1 | 0.0891 µM [rising, full curve, poor fit] | – |
| CCOC(=O)c1c(NC(=O)C(NCCN(C)C)c2ccccc2)sc2c1CCCC2 (centres undefined) | 3.98 µM [falling, partial curve] | – |
| CCc1ccc(NC(=O)c2cc(C(C)C)on2)cc1 | 3.55 µM [falling, full curve] | – |
| COc1ccc(/C(C)=N/NC(=O)c2ccc(N(C)C)cc2)cc1 | 3.55 µM [falling, single point] | – |
| COc1ccc2nc(NC(=O)c3cccc(OCc4c(C)noc4C)c3)sc2c1 | 3.98 µM [falling, partial curve] | – |
| N#Cc1c(-c2ccco2)nc(SCC(=O)Nc2ccc(S(N)(=O)=O)cc2)[nH]c1=O | 18.4 µM [falling, single point] | – |
| CCNC(=S)N1CCN(CCN2C(=O)c3cccc4cccc(c34)C2=O)CC1 | 12.6 µM [rising, single point] | – |
| CC1(C)OC(=O)N(NCc2ccccc2)C1(C)O (centres undefined) | 0.355 µM [rising, partial curve, poor fit] | – |
| CCN1/C(=C/c2sc(-c3ccccc3C)c[n+]2C)Sc2ccccc21 | 1.12 µM [rising, partial curve, poor fit] | – |

6 structures from above, arranged by molar mass, high to low:

| Structure (SMILES) | AC50 [1] | AC50 [2] |
| --- | --- | --- |
| N#Cc1c(-c2ccco2)nc(SCC(=O)Nc2ccc(S(N)(=O)=O)cc2)[nH]c1=O | 18.4 µM [falling, single point] | – |
| COc1ccc2nc(NC(=O)c3cccc(OCc4c(C)noc4C)c3)sc2c1 | 3.98 µM [falling, partial curve] | – |
| CCNC(=S)N1CCN(CCN2C(=O)c3cccc4cccc(c34)C2=O)CC1 | 12.6 µM [rising, single point] | – |
| CCc1nn(CCCC(=O)NCc2ccc(C)cc2)c(=O)c2cc3occc3n12 | 15.8 µM [rising, single point] | – |
| COc1cc(C(C)=O)ccc1OCC(=O)c1cc(C)n(C2CC2)c1C | 3.16 µM [rising, single point] | – |
| Clc1ccccc1CSc1cc2c(nn1)-c1ccccc1CC2 | 5.62 µM [rising, partial curve, poor fit] | – |
